In one data set the target is Cytochrome P450 3A4 (Homo sapiens, UniProt P08684). The experiment in a line: Inhibition of recombinant human CYP3A4.
Data set [1] is described as follows: Apparent permeability in human Caco2 cells at 5 uM after 20 mins. The note with it: Caco-2.
The nature of data set [2]: Solubility of the compound in phosphate buffer at pH 7.4 by HPLC analysis.

Chains of the proteins cited; added tags and fusions are not shown.
UniProt P08684, whole entry: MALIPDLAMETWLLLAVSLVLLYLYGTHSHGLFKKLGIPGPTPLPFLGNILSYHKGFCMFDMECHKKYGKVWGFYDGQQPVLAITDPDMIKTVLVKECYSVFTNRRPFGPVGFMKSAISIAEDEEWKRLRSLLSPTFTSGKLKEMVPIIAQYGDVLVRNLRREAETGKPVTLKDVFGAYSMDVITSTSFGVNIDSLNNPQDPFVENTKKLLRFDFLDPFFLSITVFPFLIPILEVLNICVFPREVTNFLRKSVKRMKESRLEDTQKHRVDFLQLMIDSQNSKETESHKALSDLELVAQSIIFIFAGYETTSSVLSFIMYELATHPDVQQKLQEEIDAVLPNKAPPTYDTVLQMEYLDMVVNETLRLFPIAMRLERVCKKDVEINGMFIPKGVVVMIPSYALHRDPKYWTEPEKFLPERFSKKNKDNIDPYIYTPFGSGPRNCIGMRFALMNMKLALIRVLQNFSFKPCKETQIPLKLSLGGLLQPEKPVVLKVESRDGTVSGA

pIC50: −log10 of the molar value. Values after ≈ are worked out from the molar mass of the structure shown.

Consider `O=C(Cc1nc(N2CCOCC2)cc(=O)[nH]1)N1CCc2c(F)cccc21`, for which the pIC50 on Cytochrome P450 3A4 was 4.40. For the same compound, the Papp at 20 min, 5 µM in data set [1] amounted to 5.4 ×10⁻⁶ cm/s. This compound also showed a solubility in data set [2] of 14 µM (≈ 5.02 µg/mL).

The values above are taken from ChEMBL document CHEMBL3112424, “Discovery and optimization of pyrimidone indoline amide PI3Kβ inhibitors for the treatment of phosphatase and tensin homologue (PTEN)-deficient cancers” (J Med Chem, 2014).
